The campaign covered roughly 400,000 compounds. About 13,000 (3.2%) were called active. The inconclusive results got no clear call from the source; some entries with a clear call stand among them for comparison. The call rests on the fitted dose curve; in most records, active means well fitted cell-killing curve with a large enough effect; inconclusive means small, poorly fitted or top-dose-only effect, or effect the other way; inactive means flat fitted curve, though single readings scatter. A potency beside an inconclusive call is a rough fit, not a confirmed value.
Assay: qHTS assay for MDR1-selective chemotherapeutics: Primary screen using the drug-selected MDR subline cells KB-V1; further: nearly all actives have a fitted effect of over 60% in size
Details: KB-V1 MDR cells viability, CellTiter-Glo, 72 h; activity change, negative = cytotoxicity: at 46.1 µM (top of the series)
In short: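 qHTS viability screen in drug-selected KB-V1 MDR cells: 72 h compound treatment at 37 degrees C, ATP luminescence end point.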
On the % scale 0 is the no-effect control and ±100 the full control effect; potency means the concentration at half of the fitted maximal effect.

SMILES	activity change, negative = cytotoxicity	Potency
CSc1ccccc1NC(=O)CN(C)Cc1c(O)ccc2ccccc12	inactive: 2%	–
COc1ccccc1NC(=O)/C(=C\c1cccnc1)NC(=O)c1ccc(C)cc1	inactive: -8.01%	–
Cc1ccc(N(C(=O)CCC(=O)Nc2cc(C)on2)C(C(=O)NC2CCCC2)c2cccs2)cc1 (stereo not drawn)	–	inconclusive: 35.5 µM [cytotoxic, partial curve, poor fit]
S=C1NC2(CCCCC2)Nc2ccccc21	inactive: 11.3%	–
O=[N+]([O-])C1C(c2ccccc2)C12c1ccccc1-c1ccccc12 (stereo not drawn)	–	active: 5.17 µM
CCOc1ccc2oc(C(=O)O)c(C)c2c1	inactive: 7.69%	–
O=C(CC(C(=O)O)C1CCCO1)Nc1cccc(C(F)(F)F)c1 (stereo not drawn)	–	inconclusive: 29.1 µM [rising, single point]
CC(C)CN1CC(Br)C(=O)NC1=O (stereo not drawn)	–	inconclusive: 29.1 µM [rising, single point]
NC(=O)c1ccc[n+](CC(=O)Nc2ccccc2C(=O)O)c1	inactive: -6.89%	–
CC(=O)Nc1ccc(S(=O)(=O)Nc2nc3ccccc3nc2Nc2cccc(S(N)(=O)=O)c2)cc1	inactive: 12%	–
CCCCNC(=O)COC(=O)c1c2c(nc3ccccc13)/C(=C/c1cccs1)CC2	–	inconclusive: 16.4 µM [cytotoxic, partial curve]
CC(=O)N(C)C1=C(N2CCOCC2)C(=O)c2ccccc2C1=O	–	active: 11.6 µM
CCOc1ccc(-c2cc(C(F)(F)F)c(C#N)c(SCC(=O)Nc3ccccc3)n2)cc1	–	inconclusive: 11.6 µM [rising, partial curve, poor fit]
CCc1ccc(C(=O)COC(=O)c2cncc(Br)c2)cc1	–	inconclusive: 3.66 µM [rising, full curve]
Cc1cc(C)nc(NS(=O)(=O)c2ccc(NC(=O)c3ccccc3[N+](=O)[O-])cc2)n1	inactive: 2.15%	–
CCOc1ccc(C(=O)N/N=C(/C)C2C(=O)c3ccccc3C2=O)cc1	–	inconclusive: 11.6 µM [cytotoxic, single point]
CN(C)c1ccc(/C=C/c2cccc[n+]2[O-])cc1	inactive: -19.9%	–
COc1ccccc1NC(=O)CN1CCC(n2nnc3cc(F)ccc32)CC1	–	inconclusive: 3.66 µM [cytotoxic, partial curve, poor fit]
CCOC(=O)c1cc2sccc2n1CC(=O)C(C)(C)C	inactive: 0.991%	–
O=[N+]([O-])c1ccc(-c2cnc(SC(c3ccccc3)c3ccccc3)[nH]2)cc1	–	inconclusive: 29.1 µM [cytotoxic, single point]
O=C(COCc1cc(-c2ccco2)on1)Nc1ccc(OC(F)(F)F)cc1	–	inconclusive: 6.51 µM [rising, full curve, poor fit]
CCCNC(=O)C(Cc1ccccc1)NC(=O)c1ccccn1 (stereo not drawn)	inactive: 15.8%	–
Cc1ccc(OCCCC(=O)Nc2ccc(Cl)c(S(=O)(=O)N3CCOCC3)c2)cc1	–	active: 7.31 µM
Cn1cnnc1SCC(=O)NN(c1ccccc1)c1ccccc1	inactive: -11.3%	–
CC1CC(C)CN(S(=O)(=O)c2ccc(C(=O)NNC(=O)c3ccccc3F)cc2)C1 (stereo not drawn)	inactive: -8.78%	–

SMILES	activity change, negative = cytotoxicity	Potency
CCOc1ccc(CCN2C(=S)N([C@@H](CC(C)C)CN3CCC[C@@H]3CN3C(=S)NC[C@@H]3Cc3ccccc3)C[C@@H]2Cc2ccc(O)cc2)cc1	–	inconclusive: 20.6 µM [cytotoxic, single point]
O=C1NC[C@@H](CCCCN2C[C@H](Cc3ccc(O)cc3)N(Cc3ccccc3)C(=O)C2=O)N(CC2CCCCC2)C1=O	–	inconclusive: 16.4 µM [rising, partial curve]
O=C(Cc1ccccc1[N+](=O)[O-])NCC(=O)c1ccc2c(c1)OCO2	–	inconclusive: 13 µM [cytotoxic, partial curve]
COc1cccc(-n2nnc3c(=O)n(CC(=O)Nc4ccccc4C)cnc32)c1	–	inconclusive: 0.0092 µM [cytotoxic, full curve, poor fit]
COc1cccc(NC(=O)CCCN2C(=O)C3CC=CCC3C2=O)c1 (stereo not drawn)	–	inconclusive: 20.6 µM [rising, partial curve, poor fit]
O=C(COC(=O)c1ccco1)c1ccccc1	–	inconclusive: 3.26 µM [rising, partial curve, poor fit]
COc1ccc(C2C(C#N)=C(N)Nc3nc4ccccc4n32)cc1 (stereo not drawn)	inactive: 3.21%	–
CC1COC(=C2C(=O)OCC2C)C1 (stereo not drawn)	inactive: 15.2%	–
CC(C)(C)NC(=O)COc1ccc(CNCc2ccccn2)cc1	inactive: 0%	–
O=C(NC1CCCC1)c1cc(-c2cccs2)on1	–	inconclusive: 13 µM [cytotoxic, single point]
Cc1oc(-c2ccc(Cl)cc2)nc1Cn1c(=O)cc(-c2ccccc2)c2c(C)nn(C)c21	inactive: 10.3%	–
CCCCCCC(O)(c1ccccc1)C(CN1CCOCC1)c1ccccc1 (stereo not drawn)	–	inconclusive: 10.3 µM [cytotoxic, partial curve]
O=C(Cn1c(=O)c(=O)n(Cc2ccccc2)c2ccc(Cl)cc21)Nc1ccc(F)cc1F	inactive: -27.8%	–
O=C(CSCc1ccc(Br)cc1)N1CCOCC1	–	inconclusive: 23.1 µM [cytotoxic, single point]
COc1cccc(/C(C#N)=C/c2c(-c3ccc(Cl)cc3)nc3c(C)cccn23)c1	inactive: -2.42%	–
CCn1c(CCNC(=O)c2ccc(Cl)cc2Cl)n[nH]c1=S	inactive: 0.531%	–
O=C(O)c1ccc2oc(=O)c(S(=O)(=O)c3ccccc3)cc2c1	–	inconclusive: 23.1 µM [rising, single point]
NNC(=O)COc1ncn(-c2ccccc2)n1	–	inconclusive: 25.9 µM [rising, single point]
CCNC(=O)CC1C(=O)N(c2ccc(F)cc2)C(=O)N1CCc1ccc(OC)cc1 (stereo not drawn)	–	inconclusive: 11.6 µM [cytotoxic, partial curve]
O=C(c1cccc(N2CCNC2=O)c1)N1CCCC(Nc2cccc(F)c2)C1 (stereo not drawn)	inactive: -0.705%	–
COc1ccc(-c2ccc([C@H]3[C@@H]4C=CCC[C@@]4(C)C(=O)N3Cc3ccccc3)c(F)c2)cc1	–	active: 7.31 µM
Cc1cccc(C)c1Cn1c(C)c(C(=O)NCc2cccc(Cl)c2)sc1=O	–	inconclusive: 9.2 µM [cytotoxic, partial curve]
COc1ccc(-c2oc3c(c2C#CC(C)(C)O)C(OC)CCC3)cc1 (stereo not drawn)	inactive: -12.8%	–
CCOc1ccc(NC(=O)c2ccc(NC(=O)Cc3n[nH]c(=O)c4ccccc34)cc2)cc1	–	inconclusive: 29.1 µM [rising, single point]
Cc1cccc(-n2ncc(C(=O)NC3CCCC3)c2C2CCN(C(=O)OC(C)(C)C)CC2)c1	inactive: 4.44%	–

Fetched by compound from the entries so far, 5 records:
SMILES	activity change, negative = cytotoxicity	Potency
COc1ccc(-c2ccc([C@H]3[C@@H]4C=CCC[C@@]4(C)C(=O)N3Cc3ccccc3)c(F)c2)cc1	–	active: 7.31 µM
NC(=O)c1ccc[n+](CC(=O)Nc2ccccc2C(=O)O)c1	inactive: -6.89%	–
COc1ccccc1NC(=O)CN1CCC(n2nnc3cc(F)ccc32)CC1	–	inconclusive: 3.66 µM [cytotoxic, partial curve, poor fit]
Cn1cnnc1SCC(=O)NN(c1ccccc1)c1ccccc1	inactive: -11.3%	–
O=C(CSCc1ccc(Br)cc1)N1CCOCC1	–	inconclusive: 23.1 µM [cytotoxic, single point]

Remaining list, next part:

SMILES	activity change, negative = cytotoxicity	Potency
O=C(NC1CCCC1)c1cccc(S(=O)(=O)N2CCOCC2)c1	inactive: -6.18%	–
CC(=O)C1=C(C)NC(SCC(=O)c2ccc(Cl)cc2)=C(C#N)C1CC(C)C (stereo not drawn)	–	active: 20.6 µM
Cc1nn(-c2ccccc2)c2c1C(=O)NC(=O)C(C)(C)C2	–	inconclusive: 18.4 µM [cytotoxic, partial curve, poor fit]
O=C(NC(=S)Nc1ccc(Cl)cn1)C(c1ccccc1)c1ccccc1	–	inconclusive: 16.4 µM [cytotoxic, single point]
COc1ccc(C2c3c(ncn(CCCO)c3=N)Oc3ccc4ccccc4c32)cc1OC (stereo not drawn)	inactive: -1.35%	–
CCc1ccc(NC(=O)c2nc(SCc3ccccc3F)ncc2Cl)cc1	inactive: -5.3%	–
Cc1cc(/C=C(\C#N)C(=O)N2CCOCC2)c(C)n1C1CCCC1	–	inconclusive: 2.06 µM [cytotoxic, partial curve]
O=C(NNC1=NCCC1)c1cccc(S(=O)(=O)N2CCOCC2)c1	–	inconclusive: 25.9 µM [rising, single point]
O=C(CSc1nc(-c2ccco2)cc(C(F)(F)F)n1)NC1CCCC1	inactive: -4.89%	–
Cc1ccc(NC(=O)Cn2nnc(C(=O)NCc3ccco3)c2N)c(C)c1	inactive: 20.9%	–
CCN1CCN(C(=O)c2ccc3c(c2)N(Cc2cc(C)ccc2C)C(=O)c2ccccc2S3=O)CC1 (stereo not drawn)	inactive: -2.34%	–
O=C(CSc1nc2ccccc2nc1N1CCCCC1)N1CCN(c2ccccc2)CC1	–	active: 20.6 µM
Cc1noc(/C=C/c2ccco2)c1S(=O)(=O)N1CCC(C(=O)N2c3ccccc3CC2C)CC1 (stereo not drawn)	–	inconclusive: 8.2 µM [cytotoxic, partial curve, poor fit]
CCOc1ccccc1NC(=O)Cn1nnc2sc3c(c2c1=O)CCC(C(C)(C)C)C3 (stereo not drawn)	inactive: -25.8%	–
Cc1c(Cl)c([N+](=O)[O-])nn1CC(=O)NCc1cccs1	–	active: 18.4 µM
Cc1cc(N/N=C/c2cccc(Cl)c2)nc(-n2nc(C)cc2C)n1	–	inconclusive: 7.31 µM [cytotoxic, partial curve]
O=C(Nc1ccccc1)N1CCc2c([nH]c3ccccc23)C1C(F)(F)F (stereo not drawn)	–	inconclusive: 2.59 µM [cytotoxic, partial curve, poor fit]
COCCCNC(=O)/C(C#N)=C/c1c(N2CCN(c3ccc(OC)cc3)CC2)nc2c(C)cccn2c1=O	–	inconclusive: 5.17 µM [cytotoxic, partial curve]
O=C1N/C(=N/c2ccccn2)SC1Cc1ccccc1 (stereo not drawn)	–	inconclusive: 16.4 µM [cytotoxic, partial curve, poor fit]
COC(=O)Oc1cncc(C(=O)O)c1	–	inconclusive: 32.6 µM [rising, single point]
CCN1CCN(CCNC(=O)c2ccc(CS(=O)c3ccc(Br)cc3)o2)CC1 (stereo not drawn)	–	inconclusive: 14.6 µM [rising, partial curve, poor fit]
CCOC(=O)c1c(C)oc2c(Cl)cc(NS(=O)(=O)c3ccc(Cl)c(C)c3)cc12	–	inconclusive: 23.1 µM [cytotoxic, single point]
CCn1c(-c2ccc3[nH]c(C)c(C)c3c2)n[nH]c1=S	–	inconclusive: 29.1 µM [cytotoxic, single point]

From PubChem BioAssay AID1347076 (National Center for Advancing Translational Sciences (NCATS), 2019)
